Data from publication PMC2951065 (Journal of Medicinal Chemistry, 2010).

Test: Precipitation in cell culture medium
Format: physicochemical

concentration at which compound tends to precipitate in the cell culture medium: > 300 µM
Structure (SMILES): Cc1cc(/N=N/c2ccc(/N=N/c3ccc(O)c(C(=O)O)c3)cc2)c(N)cc1N [Compound 13, 1,3-[[4-(2,4-diamino-5-methylphenyl)diazenylphenyl]hydrazinylidene]-6-oxocyclohexa-1,4-diene-1-carboxylic acid]
